Reference: US4640910A (Abbott Laboratories, priority 1985, dated 1987)

Experiment: Taste test of aqueous suspensions by four tasters
Conditions: for aftertaste reported by one taster: about two hours after tasting, one of four tasters; for taste: suspended in water, four tasters

**Q.** Which “aftertaste reported by one taster” value does the source give for `CC[C@H]1OC(=O)[C@H](C)[C@@H](O[C@H]2C[C@@](C)(OC)[C@@H](O)[C@H](C)O2)[C@H](C)[C@@H](O[C@@H]2O[C@H](C)C[C@H](N(C)C)[C@H]2O[Si](C)(C)C)[C@](C)(O)C[C@@H](C)C(=O)[C@H](C)[C@@H](O)[C@]1(C)O` [Example 2, 2'-O-Trimethylsilyl Erythromycin A] here?
**A.** slight saline taste

**Q.** And the taste?
**A.** virtually tasteless

**Q.** For `CC[C@H]1OC(=O)[C@H](C)[C@@H](O[C@H]2C[C@@](C)(OC)[C@@H](O)[C@H](C)O2)[C@H](C)[C@@H](O[C@@H]2O[C@H](C)C[C@H](N(C)C)[C@H]2O[Si](C)(C)C)[C@](C)(OC)C[C@@H](C)C(=O)[C@H](C)[C@@H](O)[C@]1(C)O` [Example 3, 2'-O-trimethylsilyl-6-O-methyl-Erythromycin A], which “aftertaste reported by one taster” value is on record?
**A.** slight saline taste

**Q.** And the taste?
**A.** virtually tasteless
